Test [1] concerns the target T1, Cullin 5 (mouse (endogenous in cultured HSPCs and bone marrow cells)), Q9D5V5.
T1 chain: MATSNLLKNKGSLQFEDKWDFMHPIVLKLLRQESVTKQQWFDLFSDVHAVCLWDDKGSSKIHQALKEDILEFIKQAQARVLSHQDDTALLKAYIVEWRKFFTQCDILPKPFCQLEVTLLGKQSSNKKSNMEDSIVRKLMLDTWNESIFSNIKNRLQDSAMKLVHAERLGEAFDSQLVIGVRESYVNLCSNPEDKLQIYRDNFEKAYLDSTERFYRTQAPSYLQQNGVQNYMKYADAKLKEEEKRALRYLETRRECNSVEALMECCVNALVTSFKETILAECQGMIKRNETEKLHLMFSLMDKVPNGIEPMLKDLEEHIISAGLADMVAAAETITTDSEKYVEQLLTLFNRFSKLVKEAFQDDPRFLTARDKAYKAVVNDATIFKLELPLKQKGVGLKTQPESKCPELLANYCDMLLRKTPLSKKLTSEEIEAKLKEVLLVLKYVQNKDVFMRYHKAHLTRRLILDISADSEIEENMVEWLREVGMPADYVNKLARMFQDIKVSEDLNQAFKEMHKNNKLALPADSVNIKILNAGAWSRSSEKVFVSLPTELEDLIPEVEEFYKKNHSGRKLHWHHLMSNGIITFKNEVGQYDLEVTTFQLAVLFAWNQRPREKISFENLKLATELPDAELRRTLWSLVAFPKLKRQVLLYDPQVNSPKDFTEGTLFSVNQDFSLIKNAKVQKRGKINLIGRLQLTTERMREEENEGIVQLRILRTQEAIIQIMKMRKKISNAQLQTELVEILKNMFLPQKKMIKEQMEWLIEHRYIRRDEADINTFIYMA
Kind of test: affinity purification with mass spectrometry; anti-CUL5 antibody (4 ug/mg) or rabbit IgG isotype control, Dynabeads; lysate (1% NP-40, 100 mM NaCl, 50 mM Tris-HCl) of HSPCs expanded from WT CD34lo HSCs with TPO, SCF and IL-3, bortezomib 50 nM for 2 hours before harvest; overnight at 4°C; tandem mass spectrometry. The settings on record: remark: other sources report otherwise.

Test [2] addresses T2, LRRC41 (mouse (endogenous in cultured HSPCs and bone marrow cells)) (UniProt Q8K1C9).
T2 sequence: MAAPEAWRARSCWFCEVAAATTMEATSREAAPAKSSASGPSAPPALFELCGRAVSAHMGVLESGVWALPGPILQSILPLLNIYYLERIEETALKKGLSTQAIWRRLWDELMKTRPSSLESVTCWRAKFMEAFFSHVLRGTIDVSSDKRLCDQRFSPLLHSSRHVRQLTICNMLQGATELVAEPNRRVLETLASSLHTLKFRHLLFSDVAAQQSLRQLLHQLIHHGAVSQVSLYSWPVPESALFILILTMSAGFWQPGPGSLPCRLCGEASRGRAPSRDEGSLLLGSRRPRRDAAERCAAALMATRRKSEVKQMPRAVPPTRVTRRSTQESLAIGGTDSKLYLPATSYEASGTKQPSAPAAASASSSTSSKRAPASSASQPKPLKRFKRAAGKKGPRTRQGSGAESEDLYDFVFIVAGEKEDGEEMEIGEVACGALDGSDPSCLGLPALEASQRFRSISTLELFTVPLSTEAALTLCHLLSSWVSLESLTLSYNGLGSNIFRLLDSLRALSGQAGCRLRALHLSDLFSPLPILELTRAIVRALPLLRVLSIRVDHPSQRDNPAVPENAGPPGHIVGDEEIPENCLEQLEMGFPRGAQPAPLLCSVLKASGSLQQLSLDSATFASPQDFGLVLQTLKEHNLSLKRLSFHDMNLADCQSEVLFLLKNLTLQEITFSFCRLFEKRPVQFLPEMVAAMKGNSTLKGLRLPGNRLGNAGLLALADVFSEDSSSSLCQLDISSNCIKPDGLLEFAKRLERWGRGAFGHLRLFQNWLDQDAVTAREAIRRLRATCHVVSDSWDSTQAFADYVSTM
Description: affinity purification with mass spectrometry; anti-LRRC41 antibody (4 ug/mg) or rabbit IgG, Dynabeads; WT bone marrow cells stimulated with IL-3 (20 ng/mL), cross-linked with disuccinimidyl dibutyric urea (1 mM, 10 minutes) before lysis; overnight at 4°C; mass spectrometry.

The target in test [3] is STAT5 (mouse (endogenous in cultured HSPCs and bone marrow cells)). Description: affinity purification with mass spectrometry; anti-STAT5 antibody (10 uL/mg) or rabbit IgG, Dynabeads; bone marrow cells stimulated with IL-3 (20 ng/mL), cross-linked with disuccinimidyl dibutyric urea (1 mM, 10 minutes) before lysis; overnight at 4°C; mass spectrometry.
Test [4] concerns the target Cullin 5 (mouse (endogenous in cultured HSPCs and bone marrow cells)) (UniProt Q9D5V5). Kind of test: affinity purification with mass spectrometry; anti-CUL5 antibody (4 ug/mg) or rabbit IgG isotype control, Dynabeads; lysate (1% NP-40, 100 mM NaCl, 50 mM Tris-HCl) of HSPCs expanded from WT CD34lo HSCs with TPO, SCF and IL-3, bortezomib 50 nM for 2 hours before harvest; overnight at 4°C; tandem mass spectrometry.

Results are given in words; binding and its absence hold for the method and conditions named. In cells and extracts the contact can be indirect. These calls come from enrichment with a bait or labelling near it, and not all partners need be listed.

B1: CIS, Q62225 1-257 (protein)
chain: MVLCVQGSCPLLAVEQIGRRPLWAQSLELPGPAMQPLPTGAFPEEVTEETPVQAENEPKVLDPEGDLLCIAKTFSYLRESGWYWGSITASEARQHLQKMPEGTFLVRDSTHPSYLFTLSVKTTRGPTNVRIEYADSSFRLDSNCLSRPRILAFPDVVSLVQHYVASCAADTRSDSPDPAPTPALPMSKQDAPSDSVLPIPVATAVHLKLVQPFVRRSSARSLQHLCRLVINRLVADVDCLPLPRRMADYLRQYPFQL
With B1, the binding entry in test [1] was “binds”.

B2: LTA4H (protein, UniProt P24527 1-611)
chain: MPEVADTCSLASPASVCRTQHLHLRCSVDFARRTLTGTAALTVQSQEENLRSLTLDTKDLTIEKVVINGQEVKYTLGESQGYKGSPMEISLPIALSKNQEIVIEISFETSPKSSALQWLTPEQTSGKQHPYLFSQCQAIHCRAILPCQDTPSVKLTYTAEVSVPKELVALMSAIRDGEAPDPEDPSRKIYRFNQRVPIPCYLIALVVGALESRQIGPRTLVWSEKEQVEKSANEFSETESMLKIAEDLGGPYVWGQYDLLVLPPSFPYGGMENPCLTFVTPTLLAGDKSLSNVIAHEISHSWTGNLVTNKTWDHFWLNEGHTVYLERHICGRLFGEKFRHFHALGGWGELQNTIKTFGESHPFTKLVVDLKDVDPDVAYSSIPYEKGFALLFYLEQLLGGPEVFLGFLKAYVKKFSYQSVTTDDWKSFLYSHFKDKVDLLNQVDWNTWLYAPGLPPVKPNYDVTLTNACIALSQRWVTAKEEDLSSFSIADLKDLSSHQLNEFLAQVLQKAPLPLGHIKRMQEVYNFNAINNSEIRFRWLRLCIQSKWEEAIPLALKMATEQGRMKFTRPLFKDLAAFDKSHDQAVHTYQEHKASMHPVTAMLVGRDLKVD
As for B2, the binding result in test [2], in test [3] and in test [4] was “binds” throughout.

B3: ASB6, Q91ZU1 1-418 (protein)
chain: MPFLHGFRRIIFEYQPLVDAILGALGIQDLERQEPLDDSASSEESRILVLTELLEQKAHSPFYQEGVSNALLKMAELGLTRAAAVLLQSGANLNFEDPVTYYTALHIAVLRNQPDMVELLVRHGADINRRDRIHESSPLDLASEEPERLPCLQRLLDLGADVNAADKNGKTALLHALASSDGVQIHNTENIRLLLEGGADVKATTKDGDTVFTCIIFLLGETVCGDKEEAPMINRFCFQVTQLLLAHGADPSECPAHESLTHICLKSFKLHFPLLCFLLESGAAYNCSLHGASCWSGFNLVFERLCSHPGCAEDDSHIELLHKAETVLDLMVTSSQRLQLPENLNIHPVGSLAGKIQALHASLRQLESYPPPLKHLCRVSIRLCLRPWPVDTKVKALPLPDRLKWYLLSAHSDTQDTC
For the molecule B3, the binding result in test [1] is reported as “binds”.
